Assay results taken from patent US20260248932A1, “CATIONIC AMPHIPHILIC POLYPEPTIDE FOR DELIVERING RNA AND METHOD FOR PREPARING THE SAME” (INHA UNIVERSITY RESEARCH AND BUSINESS FOUNDATION, priority 2023, published 2026).
Some results were stated once for a whole list of compounds, not compound by compound.

Tested on: FLuc-mRNA
Experiment: Gel retardation assay (agarose gel electrophoresis) of polyplexes at various N/P ratios
Format: binding
Details: 10 mM HEPES buffer (pH 7.3)

DDDDDDDD [octameric homopolypeptide of L-Asp(DET) units used as the control group]
N/P ratio at which free mRNA bands disappeared: ≥ 2
